Results reported in PubChem BioAssay AID1671190 (National Center for Advancing Translational Sciences (NCATS), 2021).
Where “and” joins values, the source holds several entries; their conditions need not be identical. Equal entries are not always repeated. In all, about 580,000 compounds went through this assay and about 6,100 (1.1%) were called active. This list was built around the results that the source calls inconclusive (neither active nor inactive); the mix of calls is not that of the screen. Calls come from the whole dose curve; as a rule, active = well fitted inhibition curve with a large enough effect; inconclusive = small, poorly fitted or top-dose-only effect, or another doubt; inactive = no such curve, though single readings can be large or run the other way. A potency beside an inconclusive call is a rough fit, not a confirmed value.

Protein sequences, listed by entry. Tags and fused reporters are not part of them. Lines headed by an entry give the natural chain unless they say otherwise; changes in a name come on top.
UniProt P18054: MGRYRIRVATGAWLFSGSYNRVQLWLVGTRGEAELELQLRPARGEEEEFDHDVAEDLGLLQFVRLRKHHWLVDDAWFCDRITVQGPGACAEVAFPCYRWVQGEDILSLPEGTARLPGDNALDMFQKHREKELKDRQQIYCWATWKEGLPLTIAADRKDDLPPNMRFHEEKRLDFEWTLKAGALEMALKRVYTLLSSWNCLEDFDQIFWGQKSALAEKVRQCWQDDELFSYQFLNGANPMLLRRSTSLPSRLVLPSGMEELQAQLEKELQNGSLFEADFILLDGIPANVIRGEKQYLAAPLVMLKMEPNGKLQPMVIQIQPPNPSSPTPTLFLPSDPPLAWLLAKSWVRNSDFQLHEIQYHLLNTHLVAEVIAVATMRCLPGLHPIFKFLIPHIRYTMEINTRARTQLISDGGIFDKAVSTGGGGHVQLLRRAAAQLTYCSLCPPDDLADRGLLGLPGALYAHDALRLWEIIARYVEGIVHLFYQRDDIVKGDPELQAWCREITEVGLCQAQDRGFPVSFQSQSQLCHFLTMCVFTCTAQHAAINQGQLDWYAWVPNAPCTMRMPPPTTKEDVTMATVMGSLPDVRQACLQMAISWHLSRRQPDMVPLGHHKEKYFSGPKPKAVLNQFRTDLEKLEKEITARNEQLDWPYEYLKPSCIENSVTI

molecular target: Polyunsaturated fatty acid lipoxygenase ALOX12 (Homo sapiens) (UniProt P18054); assay: Primary qHTS assay for inhibitors of human arachidonate 12S-lipoxygenase (ALOX12): Round 2; conditions: purified 12hLO, xylenol orange hydroperoxide absorbance; activity change, negative = inhibition: at 108 µM (top of the series) unless noted
Procedure, shortened: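 Hydroperoxide product was detected by ferrous iron/xylenol orange as the 573 to 405 nm absorbance ratio. Arachidonic acid at 40 uM (final) was turned over for 30 min at room temperature by 150 nM human 12hLO, pH 7.0 Hepes buffer, after 15 min compound preincubation.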
% is set by controls: 0 for no effect and ±100 for the full control effect; potency is the fitted concentration of half-maximal effect.

**Q.** For `CC(C)(O)C#Cc1ccc(CN2CCCC(CNC(=O)c3ccco3)C2)cc1` (stereo not drawn), which Potency is on record?
**A.** The Potency was inconclusive: 141 µM [inhibitor, single point].

**Q.** For `Cc1oc(-c2ccccc2F)nc1CSCC(=O)N1CCN(c2ccccc2)CC1`, which Potency is on record?
**A.** The Potency was “inactive”.

**Q.** With `Cc1nc2nc(NC(=O)c3ccc(C(C)(C)C)cc3)[nH]n2c(=O)c1Cl` as the compound, how does the Potency read?
**A.** Its Potency is inconclusive: 56.2 µM [inhibitor, partial curve, poor fit].

**Q.** With `Cc1cc(/C=N/n2cnnc2)c(C)n1-c1ccc(Cl)cc1` as the compound, how does the Potency read?
**A.** Its Potency is inconclusive: 6.31 µM [inhibitor, partial curve, poor fit].

**Q.** `CC(=O)Nc1nnc(-c2ccc(Cl)s2)o1` was tested. Which Potency did it give?
**A.** Its Potency is “inactive”.

**Q.** With `COc1ccc(/C=N/Nc2ncccc2[N+](=O)[O-])c(OC)c1` as the compound, how does the Potency read?
**A.** Its Potency is “inactive”.

**Q.** Which Potency does the source give for `Cc1ccc(/C=N/Nc2ccc(F)cc2)s1` here?
**A.** The Potency was inconclusive: 56.2 µM [inhibitor, partial curve, poor fit].

**Q.** `CC(C)c1ccc(Nc2nnns2)cc1` was tested. Which Potency did it give?
**A.** Its Potency is inconclusive: 89.1 µM [inhibitor, partial curve, poor fit].

**Q.** `CCN(CC)CCOC(=O)C(Cc1cccc2ccccc12)CC1CCCO1` (stereo not drawn) was tested. Which Potency did it give?
**A.** The Potency was inconclusive: 510 nM [inhibitor, partial curve] and inconclusive: 126 nM [inhibitor, full curve, poor fit] and inconclusive: 3.55 µM [inhibitor, full curve, poor fit].

**Q.** `CCOC(=O)C1CCCN(C(=O)c2ccc(F)c(C)c2)CC1` (stereo not drawn) was tested. Which Potency did it give?
**A.** The Potency was “inactive”.

**Q.** With `O=C1CCC(C(=O)OCc2cccc(Cl)c2)=NN1` as the compound, how does the Potency read?
**A.** Its Potency is inconclusive: 126 µM [inhibitor, single point].

**Q.** For `C#CCN1C(=O)C(O)(CC(=O)/C=C/c2ccco2)c2ccccc21` (stereo not drawn), which Potency is on record?
**A.** Its Potency is inconclusive: 56.2 µM [inhibitor, partial curve, poor fit].

**Q.** `COc1ccc(Nc2nc(N)nc(CN(C)C3CCCCC3)n2)cc1` was tested. Which Potency did it give?
**A.** The Potency was “inactive”.

**Q.** Which Potency does the source give for `CCNc1ncc2nc(-c3ccc(F)cc3)c(=O)n(CCOC)c2n1` here?
**A.** Its Potency is inconclusive: 112 µM [inhibitor, single point].

**Q.** How did the Potency turn out when `COc1ccc(NS(=O)(=O)c2ccc(N3C(=O)C(C)CS3(=O)=O)cc2)cc1Cl` (stereo not drawn) was run?
**A.** The Potency was inconclusive: 39.8 µM [inhibitor, partial curve, poor fit].

**Q.** With `COCc1cnc2c(c1SCC(=O)NC1CCCC1)c(=O)n(C)c(=O)n2C` as the compound, how does the Potency read?
**A.** Its Potency is inconclusive: 56.2 µM [inhibitor, partial curve, poor fit].

**Q.** `c1coc(CNc2ncnc3sc4c(c23)CCCCC4)c1` was tested. Which Potency did it give?
**A.** The Potency was inconclusive: 31.6 µM [inhibitor, full curve, poor fit].

**Q.** `O=C(NCc1ccccc1)c1cccc(COc2cccc(Cl)c2)c1` was tested. Which Potency did it give?
**A.** Its Potency is “inactive”.

**Q.** Which Potency does the source give for `CC(OC(=O)CCc1c[nH]c2ccccc12)C(=O)c1ccccc1` (stereo not drawn) here?
**A.** Its Potency is inconclusive: 89.1 µM [inhibitor, partial curve, poor fit].

**Q.** With `Cc1ccccc1CNc1nc(N(C)C)nc2c1cnn2C` as the compound, how does the Potency read?
**A.** Its Potency is inconclusive: 126 µM [inhibitor, partial curve, poor fit].

**Q.** How did the Potency turn out when `Cc1c(Cl)cccc1Nc1nnc(SCC(=O)Nc2ccnn2C2CCCC2)s1` was run?
**A.** The Potency was “inactive”.

**Q.** `COc1ccc(-c2ccc(=O)n(CC(=O)N3CCc4ccccc4C3)n2)cc1OC` was tested. Which Potency did it give?
**A.** The Potency was “inactive”.

**Q.** `CCCCOC(=O)CSC1=C(C#N)C(c2ccc3c(c2)OCO3)CC(=O)N1` (stereo not drawn) was tested. Which Potency did it give?
**A.** Its Potency is “inactive”.

**Q.** `Cc1oc(-c2ccccc2F)nc1CS(=O)(=O)CC(=O)N1CCN(Cc2ccccc2)CC1` was tested. Which Potency did it give?
**A.** The Potency was “inactive”.

**Q.** `Cc1cc(N=CC2=C(O)CCCC2=O)no1` was tested. Which Potency did it give?
**A.** The Potency was inconclusive: 25.1 µM [inhibitor, full curve, poor fit].

**Q.** `O=C(Nc1ccc2ccccc2c1)C(C1CC1)n1c(=O)c(-c2cc3ccccc3[nH]2)nc2ccccc21` (stereo not drawn) was tested. Which Potency did it give?
**A.** Its Potency is inconclusive: 100 µM [inhibitor, single point].

**Q.** With `N#Cc1nc(-c2cccc(Cl)c2)oc1NCCCn1ccnc1` as the compound, how does the Potency read?
**A.** The Potency was inconclusive: 35.5 µM [inhibitor, partial curve, poor fit].

**Q.** How did the Potency turn out when `COCCNc1oc(-c2ccccc2Cl)nc1C#N` was run?
**A.** Its Potency is inconclusive: 39.8 µM [inhibitor, partial curve, poor fit].

**Q.** For `CC(OC(=O)c1ccc(NC(=O)CC#N)cc1)C(=O)NC(c1ccccc1)c1ccccc1` (stereo not drawn), which Potency is on record?
**A.** The Potency was “inactive”.

**Q.** `Cc1ccc(NC(=O)C2CCN(S(=O)(=O)c3ccc4[nH]c(=O)ccc4c3)CC2)cc1C` was tested. Which activity change, negative = inhibition did it give?
**A.** Its activity change, negative = inhibition is inconclusive: -31.8% [inhibitor].

**Q.** For `CNC(=S)NN=C(C)c1ccc(OC)cc1O`, which Potency is on record?
**A.** The Potency was inconclusive: 11.2 µM [inhibitor, partial curve, poor fit].

**Q.** How did the Potency turn out when `Cn1c(=O)c2c(nc(CN3CCOCC3)n2CC(O)CO)n(C)c1=O` (stereo not drawn) was run?
**A.** Its Potency is inconclusive: 100 µM [inhibitor, partial curve, poor fit].

**Q.** With `CCc1cccc(CC)c1NC(=O)Cn1c(=O)c(-c2cc(C)ccc2NC(C)=O)nc2ccccc21` as the compound, how does the Potency read?
**A.** Its Potency is inconclusive: 100 µM [inhibitor, partial curve, poor fit].

**Q.** For `CCCCNc1c(-c2ccc(-c3cccc(Cl)c3)cc2)nc2ccc(Cl)cn12`, which Potency is on record?
**A.** The Potency was inconclusive: 25.1 µM [inhibitor, partial curve].

**Q.** How did the Potency turn out when `CCc1ccc(CN(Cc2ccco2)c2cnc(S(C)(=O)=O)nc2C(=O)Nc2c(C)cccc2C)cc1` was run?
**A.** Its Potency is inconclusive: 126 µM [inhibitor, single point].

**Q.** Which Potency does the source give for `O=S(=O)(c1ccccc1)c1nc(-c2cccs2)oc1NCC1CCCO1` (stereo not drawn) here?
**A.** Its Potency is inconclusive: 5.62 µM [inhibitor, partial curve, poor fit].

**Q.** For `CCOC(=O)c1ccc(S(=O)(=O)Nc2ccc3cn[nH]c3c2)cc1`, which Potency is on record?
**A.** The Potency was inconclusive: 39.8 µM [inhibitor, partial curve, poor fit].

**Q.** Which Potency does the source give for `O=C(c1ccccc1F)N1CCC(c2nn(-c3ccc(Cl)cc3)c(=O)[nH]2)CC1` here?
**A.** Its Potency is active: 31.6 µM.

**Q.** With `COc1ccc(Oc2c(C)oc3cc(OCC(=O)NCc4ccco4)ccc3c2=O)cc1` as the compound, how does the Potency read?
**A.** The Potency was “inactive”.

**Q.** Which Potency does the source give for `CCCOC(=O)c1ccc(NC(=O)NC(c2cccc(F)c2)c2nccn2C)cc1` (stereo not drawn) here?
**A.** Its Potency is inconclusive: 5.62 µM [inhibitor, partial curve, poor fit].

**Q.** How did the Potency turn out when `COC(=O)c1ccc(COC(=O)c2ccc(C(C)=O)s2)cc1` was run?
**A.** The Potency was “inactive”.

**Q.** `O=C(/C=C/c1ccccc1)c1cc2ccccc2oc1=O` was tested. Which Potency did it give?
**A.** Its Potency is “inactive”.

**Q.** `O=C(NCCN1CCN(C(=O)c2ccc(Cl)c(Cl)c2)CC1)c1ccc(Cl)c(Cl)c1` was tested. Which Potency did it give?
**A.** The Potency was inconclusive: 44.7 µM [inhibitor, partial curve, poor fit].

**Q.** Which Potency does the source give for `O=C(CCSc1ccccc1)Nc1ccccc1Br` here?
**A.** The Potency was “inactive”.

**Q.** With `Cc1ccc(C(CNC(=O)c2cc(-c3ccc4c(c3)OCCO4)on2)N2CCN(C)CC2)o1` (stereo not drawn) as the compound, how does the Potency read?
**A.** The Potency was “inactive”.

**Q.** Which Potency does the source give for `CN(C)S(=O)(=O)c1ccc(C(=O)Nc2ccccn2)cc1` here?
**A.** Its Potency is “inactive”.

**Q.** How did the Potency turn out when `Cc1cc(OC(=O)c2cc(C(F)(F)F)cc(C(F)(F)F)c2)c([N+](=O)[O-])c(=O)[nH]1` was run?
**A.** The Potency was inconclusive: 79.4 µM [inhibitor, partial curve, poor fit].

**Q.** Which Potency does the source give for `O=C1ON=C(c2ccccc2)/C1=C/c1ccc(O)c(O)c1` here?
**A.** Its Potency is inconclusive: 0.562 µM [inhibitor, full curve, poor fit].

**Q.** `CC1CC(C)(C)NC(=S)N1CC(=O)NCc1ccc(Cl)cc1` (stereo not drawn) was tested. Which Potency did it give?
**A.** The Potency was inconclusive: 100 µM [inhibitor, partial curve, poor fit].

**Q.** `O=C(CN1c2cccc3cccc(c23)S1(=O)=O)N1CCN(c2ccccc2)CC1` was tested. Which Potency did it give?
**A.** The Potency was inconclusive: 100 µM [inhibitor, single point].

**Q.** Which Potency does the source give for `Cc1nc2c(=O)oc3ccccc3c2nc1C` here?
**A.** The Potency was “inactive”.

**Q.** For `Cc1cc(O)c(C(=O)/C=C/c2ccccc2O)c(=O)o1`, which Potency is on record?
**A.** Its Potency is “inactive”.

**Q.** With `CO[C@H]1[C@H](NC(=O)Cc2ccc(C)cc2)c2ccccc2C12CCNCC2` as the compound, how does the Potency read?
**A.** The Potency was “inactive”.

**Q.** Which Potency does the source give for `Cc1cc(C)nc(N(C#N)CC(=O)c2ccccc2)n1` here?
**A.** The Potency was “inactive”.

**Q.** How did the Potency turn out when `c1ccc(CN2CCC(Nc3nc(-c4ccccc4)nc4ccccc34)CC2)cc1` was run?
**A.** The Potency was inconclusive: 89.1 µM [inhibitor, partial curve, poor fit].

**Q.** `CCOc1cc(C(=O)Nc2cccc(OCC(=O)N3CCOCC3)c2)cc(OCC)c1OCC` was tested. Which Potency did it give?
**A.** Its Potency is “inactive”.

**Q.** For `Fc1ccc(-c2nc3c(Cl)cc(C(F)(F)F)cn3c2Cc2ccsc2)cc1`, which Potency is on record?
**A.** The Potency was inconclusive: 39.8 µM [inhibitor, partial curve, poor fit].

**Q.** How did the Potency turn out when `CCC(C)Oc1ccc(C(=O)Nc2ccc(CN3CCOCC3)cc2)cc1` (stereo not drawn) was run?
**A.** The Potency was inconclusive: 79.4 µM [inhibitor, single point].

**Q.** With `N#Cc1c(-c2ccc(C(F)(F)F)cc2)cc(-c2ccccc2)[nH]c1=S` as the compound, how does the Potency read?
**A.** The Potency was inconclusive: 44.7 µM [inhibitor, partial curve, poor fit].

**Q.** With `CCOc1cc(CNC(=O)c2ccccc2NC(=O)c2nsc3ccccc23)ccc1OC` as the compound, how does the Potency read?
**A.** Its Potency is inconclusive: 158 µM [inhibitor, partial curve, poor fit].

**Q.** With `Cc1ccc(S(=O)(=O)c2nc(S(C)(=O)=O)sc2N2CCOCC2)cc1` as the compound, how does the Potency read?
**A.** The Potency was “inactive”.

**Q.** For `Cc1ccc(C(=O)N(Cc2ccco2)Cc2ccco2)cc1`, which Potency is on record?
**A.** Its Potency is inconclusive: 8.91 µM [inhibitor, full curve, poor fit].

**Q.** `CC(C)CC(=O)NCCC1CCN(C(=O)NC2CCCCC2)CC1` was tested. Which Potency did it give?
**A.** The Potency was “inactive”.

**Q.** `CC[Si](C)(CC)COC(=O)CCC[N+](C)(C)C` was tested. Which Potency did it give?
**A.** Its Potency is active: 28.2 µM.

**Q.** `Cc1ccc(C(C)C)c(OCC(=O)Nn2c(C)nc3ccccc3c2=O)c1` was tested. Which Potency did it give?
**A.** The Potency was inconclusive: 56.2 µM [inhibitor, partial curve, poor fit].

**Q.** How did the Potency turn out when `CCNc1nc(-c2ccc3c(c2)CCC(=O)N3)cs1` was run?
**A.** The Potency was active: 20 µM.

**Q.** With `Cn1nnnc1SCC(=O)Nc1nc2c(F)c(F)c(F)cc2s1` as the compound, how does the Potency read?
**A.** Its Potency is inconclusive: 126 µM [inhibitor, partial curve, poor fit].

**Q.** For `CCCOc1ccc(CN(C(=O)c2cc(=O)c3cc(Cl)ccc3o2)C2CCS(=O)(=O)C2)cc1` (stereo not drawn), which Potency is on record?
**A.** The Potency was inconclusive: 0.398 µM [inhibitor, full curve, poor fit].
